Data reported in PubChem BioAssay AID2685 (National Center for Advancing Translational Sciences (NCATS), 2010).
The whole screen tested about 320,000 compounds, of which about 2,100 (0.66%) were called active. Inconclusive results, whose numbers are uncertain, are shown with a selection of clear calls. The call rests on the fitted dose curve; in most records, active means well fitted inhibition curve with a large enough effect in the signal ratio, with a control signal flat (not every such curve was filed as active); inconclusive means small, poorly fitted or top-dose-only effect, or effect the other way, or a change in a side signal; inactive means flat fitted curve, though single readings scatter; the % refers to the signal ratio. Potencies of inconclusive entries are doubtful fits and often do not repeat.

test: qHTS Assay for Lipid Storage Modulators in Drosophila S3 Cells; conditions: BODIPY lipid droplet fluorescence, 18-24 h, cells fed with added oleic acid; lipid storage change, negative = inhibition: at 46.1 µM (top of the series) unless noted
In short: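 Drosophila S3 cells got compounds at several concentrations plus oleic acid (400 uM solution). Laser-scanning cytometry with 488 nm excitation read lipid droplets at 500-530 nm and cells at 575-640 nm. Percent activity was relative to 20 uM Triacsin C.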
On the % scale 0 is the no-effect control and ±100 the full control effect; potency means the concentration at half of the fitted maximal effect.

Lipid storage change, negative = inhibition, inactive:
COc1ccc(CNC(=O)CN(Cc2ccc(Cl)cc2)S(C)(=O)=O)cc1, COc1ccc(Br)cc1CSC(=N)N

Lipid storage change, negative = inhibition, inconclusive:
CCN1C(=O)S/C(=C/c2c(OCc3ccc(C(=O)O)cc3)ccc3ccccc23)C1=O 2.84%, CCOc1cc(S(=O)(=O)N(Cc2ccccc2)Cc2ccccc2)c(OCC)cc1-n1cnnn1 -8.57%, CN(C)CCN(C(=O)c1ccc2c(c1)CCCC2)c1nc2c(F)cccc2s1 8.57%, Cc1cccc(-c2nc(C#N)c(NCC3CCCO3)o2)c1 (stereo unspecified) 10%, CCn1cnc2sc(C(=O)Nc3ccccc3OC)c(C)c2c1=O 8.89%, Cc1ccc(N2C(=O)CC(Cn3nc(C)cc3C)C2=O)cc1 (stereo unspecified) 6.77%, CCNC(=O)/C(=C\C=C\c1ccccc1)NC(=O)c1ccc(Br)o1 -1.56%, O=C(NCC1COc2ccccc2O1)c1cccc(S(=O)(=O)NCc2ccccc2)c1 (stereo unspecified) 36.2%, CC(=O)c1cccc(NC(=O)CC2Oc3ccc(C)cc3NC2=O)c1 (stereo unspecified) 4.8%, CCN1CCN(CCNC(=O)c2ccc(/C=C3/Sc4ccccc4N(Cc4cccc(Cl)c4)C3=O)cc2)CC1 -19%, Cc1nnc2n(C3CCCCC3)c(=O)c3c4c(sc3n12)COC(C)(C)C4 2.35%, CC(Sc1nc(N(C)C)nc(N2CCOCC2)n1)C(=O)Nc1ccccc1 (stereo unspecified) -97.5%, Nc1nc(-c2ccco2)nn1C(=O)c1ccccc1 11.9%, COc1ccc(CN2CCSCC2)cc1O -76.6%, CCOC(=O)Cn1cc(C=O)c2ccccc21 -31.6%, COc1ccccc1-c1c(C)oc2cc(OCC(=O)OCc3ccccc3)ccc2c1=O -3.69%, O=C(CCNC(=O)c1ccccc1Cl)Nc1nc(-c2ccc3ccccc3c2)cs1 -15.5%, CCOC(=O)c1nn(-c2ccc3c(c2)CCN3C(C)=O)cc1O 17.7%, CCCCN(C(=O)COc1ccc(NC(C)=O)cc1)C1CCS(=O)(=O)C1 (stereo unspecified) 97.7%, O=C(O)c1cc(NC(=O)c2ccccc2[N+](=O)[O-])ccc1O -31.5%, Cc1cccc(NC(=O)c2ccc(NCC3CCCO3)c([N+](=O)[O-])c2)n1 (stereo unspecified) 36.4%, Cc1ccc(/C=N/NC(=O)CN2C(=O)CSc3ccccc32)o1 43.2%, Cc1ccc(N2C(=N)SCC2=O)cc1Cl 26.3%, CCc1cccc(NC(=O)c2ccc(NS(=O)(=O)c3c(C)noc3C)cc2)c1 -20%, COc1ccc(O[C@H]2C=C[C@@H](c3ccccc3)O[C@@H]2COC(=O)CC/C(C)=N/OC[C@@H](O)COCc2ccco2)cc1 -0.589%, O=C(CCl)Nc1ccc(Oc2cnc3ccccc3n2)cc1 35.7%, Cc1cc(C)c(NC(=O)C2CCCCN2C)c(C)c1 (stereo unspecified) -0.0181%, Cc1c(C(=O)Nc2ccncc2)oc2ccccc12 29.1%, Cc1ccc(SCCC(=O)N/N=C/c2cccnc2)cc1 -27.2%, O=C(COC(=O)c1cc(S(=O)(=O)N2CCCC2)ccc1O)NCCc1ccccc1 4.8%, O=C(CCN1C(=O)C2C3CCC(C3)C2C1=O)Nc1cccc(Cl)c1 (stereo unspecified) -0.0395%, CCCC(=O)Nc1nc2ccc(NC(=O)c3cccnc3)cc2s1 27.2%, CCCCCCCCNC(=O)c1cccnc1SCC(=O)Nc1ccccc1OC -17.5%, Cc1cnc(NC(=O)CC2OC(=O)c3ccccc32)s1 (stereo unspecified), O=C(CN1C(=O)NC2(CCCCC2)C1=O)NCC(=O)Nc1ccc(F)c(F)c1, Cn1ccsc1=NC(=O)c1ccc(=O)[nH]c1 -5.53%

Potency, inconclusive:
CCN(CC)CCCN1C(=O)C(O)=C(C(C)=O)C1c1cccc(OC)c1 (stereo unspecified) 0.206 µM [falling, full curve, poor fit], COC(=O)c1ccc(C(=O)OC)c(NC(=O)CCC(=O)O)c1 29.1 µM [activator, single point], Cc1ccc(-c2cc(C(=O)OC3CCOC3=O)c3ccccc3n2)c(C)c1 (stereo unspecified) 0.517 µM [falling, partial curve], CC(C)C(=O)Nc1nc2c(ncn2C2CC(O)C(CO)O2)c(=O)[nH]1 (stereo unspecified) 23.1 µM [falling, single point], Cc1occc1-c1nnc(SCC(=O)Nc2ccccc2)n1Cc1ccccc1 1.3 µM [activator, full curve], COc1ccc(NC(=O)CN2C(=O)COc3ccc(S(=O)(=O)N4CCOCC4)cc32)cc1Cl 6.51 µM [activator, single point], CC1=CCC2C(=O)N(c3ccccc3OC(=O)c3ccccc3F)C(=O)C2C1 (stereo unspecified) 7.31 µM [activator, partial curve, poor fit], O=C(CCc1ccccc1)Nc1ccc2c(c1)OCO2 29.1 µM [activator, single point], Clc1ccc(-c2nnc(-c3ccccc3)nc2N2CCSCC2)cc1 29.1 µM [activator, single point], COc1ccccc1CN(Cc1nc2ccccc2c(=O)[nH]1)C(=O)Nc1cccc(C)c1 0.82 µM [activator, full curve], CCC(=O)Nc1ccc2ccccc2c1 18.4 µM [activator, single point], Cc1noc(-c2ccc(C(F)(F)F)cc2)c1NC(=O)Nc1ccc(Cl)cc1 29.1 µM [falling, partial curve, poor fit]

Potency, active:
CC(NC(=O)COC(=O)CCN1C(=O)C2CC=CCC2C1=O)c1ccc(Br)cc1 (stereo unspecified) 9.2 µM
